Patent US11851387B2, “Para-phenylenediamine derivative, 1,4-cyclohexyldiamine derivative, and fabricating method for 1,4-diamine cyclic compound derivative” (Yuanhan Materials Inc., priority 2021, dated 2023)
Some entries share one result that the patent states for a list of compounds.

Experiment: Solubility in solvent commonly used in the synthesis of polyimide (NMP, DMAc)
Assay type: physicochemical
Conditions: NMP at 50° C. (para-phenylenediamine series) or DMAc at 70° C. (1,4-cyclohexanediamine series)
From the text: In the following descriptions, features and effects of the present disclosure will be described more specifically with reference to some Embodiments and some Comparative Examples. It is noted that without exceeding the scope of the present disclosure, the materials used, their amount and ratio, processing details, processing flow, etc. can be appropriately alternated. Therefore, the present disclosure should not be interpreted restrictively by the Embodiments provided below. Specifically, each Comparative Example and each Embodiment are thoroughly mixed with solvent commonly used in the synthesis of polyimide (e.g., N-methylpyrrolidone (NMP) and dimethylacetamide (DMAc)), and the solubility of each Comparative Example and each Embodiment in the solvent is measured, so as to verify the efficacy of the present disclosure. The detailed description and the measurement results of the solubility of each Comparative Example and each Embodiment are shown in Table 1.

NC1CCC(N)CC1 (stereo not shown) [Comparative Example 2, 1,4-cyclohexanediamine]
solubility of the compound in the solvent (in words): very low
